From PubChem BioAssay AID1671190 (National Center for Advancing Translational Sciences (NCATS), 2021)
Screen size: about 580,000 compounds; about 6,100 (1.1%) were called active. The shares of active, inactive and inconclusive entries below differ from those in the screen. Calls follow the shape of the dose curve; as a rule, active = well fitted inhibition curve with a large enough effect; inconclusive = small, poorly fitted or top-dose-only effect, or another doubt; inactive = no such curve, though single readings can be large or run the other way. A potency beside an inconclusive call is a rough fit, not a confirmed value.
% is scaled to controls: 0 for no effect and ±100 for the full control effect; potency is read from the fitted curve at half-maximal effect.

Protein sequences, listed by entry. Tags and fused reporters are not part of them. Lines headed by an entry give the natural chain unless they say otherwise; changes in a name come on top.
UniProt P18054: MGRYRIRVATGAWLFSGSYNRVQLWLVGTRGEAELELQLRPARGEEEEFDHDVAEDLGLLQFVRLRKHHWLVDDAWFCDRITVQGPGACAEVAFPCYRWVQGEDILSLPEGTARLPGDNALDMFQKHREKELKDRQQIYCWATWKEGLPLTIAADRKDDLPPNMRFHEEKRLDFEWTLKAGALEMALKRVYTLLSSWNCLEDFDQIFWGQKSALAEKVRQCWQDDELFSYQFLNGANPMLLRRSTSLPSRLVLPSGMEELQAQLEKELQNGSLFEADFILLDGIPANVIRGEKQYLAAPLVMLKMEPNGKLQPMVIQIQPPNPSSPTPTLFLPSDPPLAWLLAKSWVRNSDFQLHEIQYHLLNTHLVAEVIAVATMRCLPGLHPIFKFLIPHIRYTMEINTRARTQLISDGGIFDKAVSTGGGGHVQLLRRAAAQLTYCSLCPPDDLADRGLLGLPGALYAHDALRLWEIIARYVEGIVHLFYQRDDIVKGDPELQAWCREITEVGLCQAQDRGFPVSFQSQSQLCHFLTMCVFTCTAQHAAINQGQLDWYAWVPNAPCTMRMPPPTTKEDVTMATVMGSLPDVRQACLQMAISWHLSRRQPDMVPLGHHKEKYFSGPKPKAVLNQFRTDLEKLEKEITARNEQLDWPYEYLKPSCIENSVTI

Each molecule was assayed against Polyunsaturated fatty acid lipoxygenase ALOX12 (Homo sapiens) (UniProt P18054) (assay: Primary qHTS assay for inhibitors of human arachidonate 12S-lipoxygenase (ALOX12): Round 2). Conditions: purified 12hLO, xylenol orange hydroperoxide absorbance; activity change, negative = inhibition: at 108 µM (top of the series) unless noted.
Procedure, shortened: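 Hydroperoxide product was detected by ferrous iron/xylenol orange as the 573 to 405 nm absorbance ratio. Arachidonic acid at 40 uM (final) was turned over for 30 min at room temperature by 150 nM human 12hLO, pH 7.0 Hepes buffer, after 15 min compound preincubation.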
In the case of `CC(C)Cc1nc(NCc2cccnc2)c(C#N)c2c1CCCC2`, the Potency was “inactive”.
`CCN(CC)c1nc(N(CC)CC)[nH]c(=O)n1` was tested, and the Potency was “inactive”.
`COc1ccc(/C=C/c2nnc(NC(=O)CSc3ccc(Cl)cc3)s2)cc1` was tested, and the Potency was “inactive”.
With `CCOC(=O)C1CCCN(C(=O)c2c(-c3ccccc3)noc2C)CC1` (stereo not drawn) the Potency was inconclusive: 100 µM [inhibitor, single point].
`CN(C)C(=S)N=c1ssc(=S)n1Cc1ccco1` was tested, and the Potency was inconclusive: 35.5 µM [inhibitor, partial curve, poor fit].
`Cc1nn(-c2ccccc2)c(N)c1Sc1cccc([N+](=O)[O-])c1` was tested, and the Potency was inconclusive: 56.2 µM [inhibitor, partial curve, poor fit].
For `CCN(CC(=O)NCc1ccc(Cl)cc1)C(=O)c1cc2ccccc2o1`, the Potency was inconclusive: 112 µM [inhibitor, single point].
For `CCN(Cc1ccccc1)C(=O)Cc1c[nH]c2ccccc12`, the Potency was inconclusive: 100 µM [inhibitor, single point].
`COc1cc(C#N)ccc1OCC(=O)Nc1cccc(S(=O)(=O)N(C)c2ccccc2)c1` was tested, and the Potency was inconclusive: 126 µM [inhibitor, partial curve, poor fit].
In the case of `COCCCN(Cc1ccco1)C(=O)c1cc2c(s1)-c1ccccc1OC2`, the Potency was inconclusive: 112 µM [inhibitor, partial curve, poor fit].
In the case of `CNC(=O)NC(=O)CCCN1CCN(c2oc(C3CC3)nc2C#N)CC1`, the Potency was inconclusive: 31.6 µM [inhibitor, single point].
For `CCn1c(C)cc(C(=O)COC(=O)c2nccnc2N)c1C`, the Potency was inconclusive: 3.98 µM [inhibitor, full curve, poor fit].
For `Cc1cc(C)nc(SCc2cc(=O)c(OC(=O)c3ccc(Cl)c([N+](=O)[O-])c3)co2)n1`, the Potency was inconclusive: 20 µM [inhibitor, full curve, poor fit].
In the case of `CC1=C(C(=O)N(C)C)CC(CC(=O)NCCc2ccccn2)C(=O)N1CCCN1CCCC1=O` (stereo not drawn), the Potency was inconclusive: 7.94 µM [inhibitor, full curve, poor fit].
For `CCOc1ccc(C(O)c2nccn2Cc2ccccc2)cc1OC` (stereo not drawn), the Potency was “inactive”.
For `O=C(COc1ccccc1)Nc1sc2c(c1C(=O)Nc1ccccc1Cl)CCCCC2`, the Potency was “inactive”.
`COc1cccc(-c2n[nH]c3c2CC(=O)N(Cc2ccccn2)C3)c1` was tested, and the Potency was “inactive”.
`CC1(C(=O)NS(=O)(=O)c2ccc3c(c2)CCO3)CCN1C(=O)CCC1CCCC1` (stereo not drawn) was tested, and the Potency was inconclusive: 44.7 µM [inhibitor, partial curve, poor fit].
With `COc1ccc(CCNC(=O)C2CCN(C(=O)c3ccc(Br)cc3)CC2)cc1` the Potency was “inactive”.
For `CN(CC(=O)Nc1cccc(S(=O)(=O)N2CCCC2)c1)CC(=O)Nc1ccc(Cl)c(C(F)(F)F)c1`, the Potency was “inactive”.
`C=C(C)CNC(=S)Nc1cccc(N)n1` was tested, and the Potency was inconclusive: 79.4 µM [inhibitor, single point].
`COc1ccc2cc(C(=O)N3CCC(C(C)C(=O)NCCCN4CCCC4)CC3)[nH]c2c1` (stereo not drawn) was tested, and the Potency was inconclusive: 0.282 µM [inhibitor, full curve, poor fit].
With `Cc1cccc(NC(=O)C(C)OC(=O)c2ccccc2NS(=O)(=O)c2cc(C)c(C)c([N+](=O)[O-])c2)c1` (stereo not drawn) the activity change, negative = inhibition was inconclusive: -31.7% [inhibitor].
With `CCOC(=O)c1ccc(NC(=O)Nc2cccc(-c3nnc(Cc4ccc5c(c4)OCO5)o3)c2)cc1` the Potency was inconclusive: 44.7 µM [inhibitor, partial curve, poor fit].
In the case of `O=C(Nc1cccc2ccccc12)c1ccc(Br)o1`, the Potency was inconclusive: 20 µM [inhibitor, partial curve, poor fit].
In the case of `O=S(=O)(NCC1CC1)c1ccc2ccccc2c1`, the Potency was “inactive”.
In the case of `Cc1cccc(C)c1NC(=O)CN1C(=O)CCSc2ccc(S(=O)(=O)N3CCCC3)cc21`, the Potency was inconclusive: 100 µM [inhibitor, partial curve, poor fit].
With `Cc1ccc(C#N)c(SCc2ccccc2[N+](=O)[O-])n1` the Potency was inconclusive: 141 µM [inhibitor, partial curve, poor fit].
For `CC[C@H](CC[C@@H](C)[C@H]1CC[C@H]2[C@@H]3CC=C4C[C@@H](O)CC[C@]4(C)[C@@H]3CC[C@]12C)C(C)C`, the Potency was inconclusive: 19.3 µM [inhibitor, partial curve, poor fit].
With `CC(=O)Nc1ccc(NC(=S)Nc2ccccc2)cc1` the Potency was inconclusive: 100 µM [inhibitor, single point].
`CCn1c2c(c(=N)c3c1CCC3)CCC2` was tested, and the Potency was “inactive”.
For `CCCCn1c(N)c(NCc2ccccc2)c(=O)[nH]c1=O`, the Potency was “inactive”.
In the case of `CCC(=O)N1Cc2ccccc2CC2(CCCN2Cc2ccccc2)C1` (stereo not drawn), the activity change, negative = inhibition was inactive: 5.45% [at 6.33 µM].
With `CCOCCCNCC(=O)Nc1ccccc1N1CCOCC1` the Potency was inconclusive: 0.708 µM [inhibitor, full curve, poor fit].
For `Cn1cccc1-c1cc(C(=O)N/N=C/c2ccc(Cl)cc2)[nH]n1`, the Potency was inconclusive: 112 µM [inhibitor, partial curve, poor fit].
`COC(=O)C1C(=O)c2c([nH]c(C(=O)OC3CCCC3C)c2C)CC1C` (stereo not drawn) was tested, and the Potency was “inactive”.
With `CCc1ccc(CNC(=O)Cn2c(C)cc3nc4n(c(=O)c32)CCCC4)cc1` the Potency was inconclusive: 25.1 µM [inhibitor, full curve].
For `COc1ccc(NC(=O)C2CCN(C(=O)C3CC(=O)N(c4ccc(C)cc4)C3)CC2)c(OC)c1` (stereo not drawn), the Potency was “inactive”.
`COc1cc(C#N)ccc1OC(C)c1ccccc1Cl` (stereo not drawn) was tested, and the Potency was inconclusive: 141 µM [inhibitor, single point].
In the case of `COc1cccc(C(=O)NCC[N+](C)(C)C)c1`, the Potency was inconclusive: 39.8 µM [inhibitor, partial curve, poor fit].
For `NC(=O)C1CCN(C(=O)c2ccc3c(c2)CCN3S(=O)(=O)c2ccc(Cl)cc2)CC1`, the Potency was “inactive”.
In the case of `Cc1ccc(-c2c(CN3CCN(c4cc(C)ccc4C)CC3)csc2C)cc1`, the Potency was “inactive”.
With `CC1(C)CN(C(=O)CCc2nc(-c3ccco3)no2)CC1(C)O` (stereo not drawn) the Potency was inconclusive: 7.94 µM [inhibitor, partial curve].
